Test results taken from PMC10041521 (Journal of Medicinal Chemistry, 2023).
[ ]: non-standard residue; d: D form. The star is where a group is joined. Phe(3-F) = N[C@@H](Cc1cccc(F)c1)C(=O)O; ACC = NC(=O)Cc1cc(=O)oc2cc(N*)ccc12; Nle = CCCC[C@H](N)C(=O)O; OBn = c1ccc(CO*)cc1; Bn = c1ccc(C*)cc1

test: general procedure: Fmoc solid-phase peptide synthesis; Rink amide RA resin (loading 0.74 mM/g); 2-chlorotrityl chloride resin (loading 1.60 mM/g); HATU/collidine; HBTU; DICI/HOBt; conditions: whole synthesis, analytical HPLC, Discovery Bio Wide Pore C8 column

Final HPLC purity, ≥ 99%:
Ac-Bpa-2-Aoc-His(Bzl)-Arg-ACC
Ac-I[Nle]NR-{ACC}
Ac-Lys(2-Cl-Z)-2-Aoc-His(Bzl)-Arg-ACC
Ac-Tyr(2,6-Cl2-Z)-2-Aoc-His(Bzl)-Arg-ACC
Ac-Tyr(2,6-Cl2-Z)-2-Aoc-hSer(Bzl)-Arg-ACC
Ac-Tyr(2,6-Cl2-Z)-Cha-His(Bzl)-Arg-ACC
Ac-Tyr(2,6-Cl2-Z)-Dht-His(Bzl)-Arg-ACC
Ac-Tyr(2,6-Cl2-Z)-Nle-Glu(Bzl)-Arg-ACC
Ac-Tyr(2,6-Cl2-Z)-Nle-His(Bzl)-Arg-ACC
Ac-Tyr(2,6-Cl2-Z)-Phe(3-F)-Glu(Bzl)-Arg-ACC
Ac-Tyr(2,6-Cl2-Z)-Phe(3-F)-His(Bzl)-Arg-ACC
Ac-Tyr(2,6-Cl2-Z)-Tyr(2,6-Cl2-Z)-Glu(Bzl)-Arg-ACC
Ac-Tyr(2,6-Cl2-Z)-Tyr(2,6-Cl2-Z)-His(Bzl)-Arg-ACC
Ac-Tyr(2,6-Cl2-Z)-hCha-His(Bzl)-Arg-ACC
Ac-Tyr(Bzl)-2-Aoc-Glu(Bzl)-Arg-ACC
Ac-Tyr(Bzl)-2-Aoc-His(Bzl)-Arg-ACC
Ac-Tyr(Bzl)-Nle-His(Bzl)-Arg-ACC
Ac-Tyr(Bzl)-Phe(3-F)-His(Bzl)-Arg-ACC
Ac-Tyr(Bzl)-Tyr(2,6-Cl2-Z)-Glu(Bzl)-Arg-ACC
Ac-Y(Bn)[Nle]E(OBn)R-{ACC} (SMILES CCCC[C@H](NC(=O)[C@H](Cc1ccc(OCc2ccccc2)cc1)NC(C)=O)C(=O)N[C@@H](CCC(=O)OCc1ccccc1)C(=O)N[C@@H](CCCNC(=N)N)C(=O)Nc1ccc2c(CC(N)=O)cc(=O)oc2c1)
Ac-Y(Bn)[Phe(3-F)]E(OBn)R-{ACC}

Final HPLC purity, ≥ 97%:
Ac-Tyr(2,6-Cl2-Z)-2-Aoc-Nle(O-Bzl)-Arg-ACC
biotin-PEG(4)-Tyr(2,6-Cl2-Z)-Dht-His(Bzl)-ArgP(OPh)2

Final HPLC purity, ≥ 95%:
Ac-Tyr(2,6-Cl2-Z)-2-Aoc-Glu(Bzl)-Arg-ACC
Ac-Tyr(Bzl)-Tyr(2,6-Cl2-Z)-His(Bzl)-Arg-ACC
biotin-PEG(4)-Tyr(2,6-Cl2-Z)-Nle-Glu(Bzl)-ArgP(OPh)2
